According to US11339442B2, “Methods of detecting insulator dysfunction and oncogene activation for screening, diagnosis and treatment of patients in need thereof” (THE GENERAL HOSPITAL CORPORATION, priority 2015, dated 2022):

Biological target: T1, CTCF (Homo sapiens) (UniProt P49711)
T1 sequence (looked up, limits assumed): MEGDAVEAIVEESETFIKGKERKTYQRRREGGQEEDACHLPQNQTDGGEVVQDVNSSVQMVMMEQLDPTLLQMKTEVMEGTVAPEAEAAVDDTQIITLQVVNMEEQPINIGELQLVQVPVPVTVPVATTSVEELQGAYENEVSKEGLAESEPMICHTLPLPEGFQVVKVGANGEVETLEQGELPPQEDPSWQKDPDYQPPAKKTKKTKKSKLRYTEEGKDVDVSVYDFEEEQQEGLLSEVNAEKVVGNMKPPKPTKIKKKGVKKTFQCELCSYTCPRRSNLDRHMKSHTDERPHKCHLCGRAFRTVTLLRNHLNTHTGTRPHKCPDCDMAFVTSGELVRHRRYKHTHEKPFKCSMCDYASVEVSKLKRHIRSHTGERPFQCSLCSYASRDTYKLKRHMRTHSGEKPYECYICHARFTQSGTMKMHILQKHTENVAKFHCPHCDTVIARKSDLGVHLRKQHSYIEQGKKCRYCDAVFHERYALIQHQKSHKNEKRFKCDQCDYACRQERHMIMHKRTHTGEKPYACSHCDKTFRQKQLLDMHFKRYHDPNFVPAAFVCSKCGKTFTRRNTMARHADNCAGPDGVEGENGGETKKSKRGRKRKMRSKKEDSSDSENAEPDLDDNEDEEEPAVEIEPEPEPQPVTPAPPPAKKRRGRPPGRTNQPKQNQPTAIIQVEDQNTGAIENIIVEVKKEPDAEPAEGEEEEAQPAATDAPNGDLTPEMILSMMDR
Test: binding assay
Settings: protein in cells

| Sequence | binding result (ChIP-seq and ChIP-qPCR in IDH wildtype gliomas and gliomaspheres) | binding result (5mC at the CpG in the motif (partial, fraction of alleles), ChIP-qPCR, occupancy reduced 30-50% in IDH mutant tumors and models vs wildtype, about 3-fold lower in BT142, 5-aza raised occupancy about 1.7-fold) |
| --- | --- | --- |
| ATGCAGCTAGATGGCGCTC (double strand) [PDGFRA boundary CTCF motif (unmethylated, IDH wildtype)] | binds |  |
| ATGCAGCTAGATGGCGCTC (double strand) [PDGFRA boundary CTCF motif, hypermethylated (IDH mutant)] |  | binds more weakly |

At least one result comes from cells or an extract, where the contact may be indirect. The comparison behind a weaker result is the experiment's own reference, which may not be listed here. Protein sequences can lack the tags named with them.
